Laboratory results as given in article PMC10880305.
These are yes or no findings as the source states them, for the method shown. Binding seen in cells or lysates may run through a third protein. A yes stands for co-enrichment or nearness to the bait. Other partners may have been found.

The chains behind the UniProt entries cited, without tags or fusion partners.
UniProt Q14677: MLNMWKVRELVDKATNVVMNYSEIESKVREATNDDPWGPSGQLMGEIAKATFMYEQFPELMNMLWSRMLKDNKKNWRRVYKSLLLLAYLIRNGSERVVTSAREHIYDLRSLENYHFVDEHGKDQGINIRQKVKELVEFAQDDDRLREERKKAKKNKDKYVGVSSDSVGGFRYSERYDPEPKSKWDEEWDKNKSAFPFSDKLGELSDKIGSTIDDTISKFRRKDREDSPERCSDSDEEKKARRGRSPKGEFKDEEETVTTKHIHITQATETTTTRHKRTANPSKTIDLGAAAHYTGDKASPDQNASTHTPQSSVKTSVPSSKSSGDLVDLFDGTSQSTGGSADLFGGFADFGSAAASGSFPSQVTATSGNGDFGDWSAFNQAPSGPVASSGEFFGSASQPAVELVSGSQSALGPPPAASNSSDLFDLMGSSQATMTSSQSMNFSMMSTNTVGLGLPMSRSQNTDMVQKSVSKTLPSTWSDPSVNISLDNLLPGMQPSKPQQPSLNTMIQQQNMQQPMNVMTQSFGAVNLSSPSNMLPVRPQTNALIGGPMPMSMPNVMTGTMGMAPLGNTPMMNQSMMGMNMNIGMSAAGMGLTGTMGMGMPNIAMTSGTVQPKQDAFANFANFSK

T1: KDELR-BirA* (human) (UniProt P24390)
T1 sequence: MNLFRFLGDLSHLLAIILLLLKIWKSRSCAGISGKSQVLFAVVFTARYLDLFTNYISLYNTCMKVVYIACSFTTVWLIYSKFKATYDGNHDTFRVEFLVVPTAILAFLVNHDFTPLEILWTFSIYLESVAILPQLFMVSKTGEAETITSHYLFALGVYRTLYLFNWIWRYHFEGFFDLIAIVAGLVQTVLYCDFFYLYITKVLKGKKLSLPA

B1: phosphatidylinositol binding clathrin assembly protein (protein, UniProt Q13492 1-652)
chain: MSGQSLTDRITAAQHSVTGSAVSKTVCKATTHEIMGPKKKHLDYLIQCTNEMNVNIPQLADSLFERTTNSSWVVVFKSLITTHHLMVYGNERFIQYLASRNTLFNLSNFLDKSGLQGYDMSTFIRRYSRYLNEKAVSYRQVAFDFTKVKRGADGVMRTMNTEKLLKTVPIIQNQMDALLDFNVNSNELTNGVINAAFMLLFKDAIRLFAAYNEGIINLLEKYFDMKKNQCKEGLDIYKKFLTRMTRISEFLKVAEQVGIDRGDIPDLSQAPSSLLDALEQHLASLEGKKIKDSTAASRATTLSNAVSSLASTGLSLTKVDEREKQAALEEEQARLKALKEQRLKELAKKPHTSLTTAASPVSTSAGGIMTAPAIDIFSTPSSSNSTSKLPNDLLDLQQPTFHPSVHPMSTASQVASTWGDPFSATVDAVDDAIPSLNPFLTKSSGDVHLSISSDVSTFTTRTPTHEMFVGFTPSPVAQPHPSAGLNVDFESVFGNKSTNVIVDSGGFDELGGLLKPTVASQNQNLPVAKLPPSKLVSDDLDSSLANLVGNLGIGNGTTKNDVNWSQPGEKKLTGGSNWQPKVAPTTAWNAATMAPPVMAYPATTPTGMIGYGIPPQMGSVPVMTQPTLIYSQPVMRPPNPFGPVSGAQIQFM

Molecular target: T1, KDELR-BirA* (human)
Test: proximity labelling; BioID: HeLa transfected with KDELR-BirA* or KDELR-myc (control) for 24 h, 50 μM biotin for 6 h, streptavidin beads, mass spectrometry; data revisited from ref. 20

Row | Molecule | binding
1 | clathrin interactor 1 (from UniProt Q14677 1-625) | binds
2 | B1 | binds
